Results on 1 substance are retold here after paper PMC7647112, “The SiaABC threonine phosphorylation pathway controls biofilm formation in response to carbon availability in Pseudomonas aeruginosa” (PLoS ONE, 2020).

Results are given in words; binding and its absence hold for the method and conditions named. For some assays here: A result given as binding can be weak or reduced; the word gives no strength.

The target in assay [1] is T1, SiaC phosphorylated at threonine 68 (SiaC^P) (Pseudomonas aeruginosa).
T1 sequence (chain, phosphothreonine at 68): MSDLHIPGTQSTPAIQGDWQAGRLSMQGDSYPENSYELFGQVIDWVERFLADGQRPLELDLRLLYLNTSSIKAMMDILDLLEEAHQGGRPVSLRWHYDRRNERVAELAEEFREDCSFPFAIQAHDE
Description: SEC; SiaB and SiaC mixed in equal molar ratio, supplemented with 10 mM ATP and 20 mM MgCl2, incubated at room temperature for 1 h (SiaC becomes SiaC^P); Hiload 16/600 Superdex 200; peaks analysed by SDS-PAGE; both purified.

The target of assay [2] is T2, SiaC (Pseudomonas aeruginosa).
T2 sequence: T1 sequence (chain, phosphothreonine at 68)
Description: SEC; SiaB and SiaC mixed in equal molar ratio, incubated at room temperature for 1 h, without ATP and MgCl2; Hiload 16/600 Superdex 200; peaks analysed by SDS-PAGE; both purified. A general note: Size exclusion chromatography separates by hydrodynamic size, large species first.

Regarding SiaB (Pseudomonas aeruginosa) (enzyme), the binding entry in assay [1] is on record as “no binding”; in assay [2] it was “binds”.
